From PMC12370185 come the findings set out here.

What all share (settings): 10 mM Tris-Cl pH 7.5, 50 mM NaCl, 1 mM DTT, 0.25 mg/ml BSA, 2 mM MgCl2, 0.025% Nonidet P-40, 5% glycerol; 28 nM nucleosome library; 10 min on ice then 30 min …; high values mean tight binding; double strand, one strand shown
One assay deals with KLF4 + histone octamer. Nature of the assay: EMSA with sequencing.
The next assay relates to OCT4 + histone octamer. Put plainly: EMSA with sequencing.
Assay [1] has as its system SOX2 + histone octamer. Put plainly: EMSA with sequencing. (In general: In EMSA bound probe runs differently from free probe, usually more slowly.)
The test system of assay [2] is c-MYC + MAX + histone octamer. Nature of the assay: EMSA with sequencing.
The subject of assay [3] is c-MYC + MAX + histone octamer. Put plainly: Pioneer-seq (competitive nucleosome EMSA with sequencing).
Assay [4] relates to SOX2 + histone octamer. The assay is described as above.

The other results are listed elsewhere or left out. For part of these data: At the low end of the ranking, values are background and their order means little.

Take “GATGGACCCTATACGCGGCTTCTCTTTACAGCAACCTGTGAAATAGAGATGGGGGTGGAAGAATGGAGATTGCATAGGGCTGGAGCTATTGACACTGAGAGCATCAGCTCAGCCAAAGAATCTTTTTCCTCTGGCATTTCCTGAAGGACAGGCAGACTCTTTGTTATGTGCATACATCAATTCACACAAGTGTGAGCACATACCCTTTGATGCCAGTCGGATAGTGTTCC”: the binding signal (log2 relative supershift) in the assay with KLF4 + histone octamer worked out at 1.3; in the assay with OCT4 + histone octamer, 0.791; in the assay on SOX2 + histone octamer [1], 1.63; in assay [2], 0.0205.
Turning to “GATGGACCCTATACGCGGCAAAAAATATCCCATGCATCCGCCCTGTGTTCTCTTTCAGATGATAATCCCGCTTCCTTTTTCACTGAGAAAACAGAAGCAATCAGAATAGGCATTGACATACACCAGCTACCACATCTACTGATATATTGGTATGTGTGCCTTGTTCTTAGCAGTCTGGGGCTATGAATGACCTGTTAGCCTCTGAGCTGATGCCAGTCGGATAGTGTTCC”, the binding signal (log2 relative supershift) was found to be 2.43 in the assay on KLF4 + histone octamer, 0.0607 in the assay with OCT4 + histone octamer, 0.778 with SOX2 + histone octamer [1] and 0.296 in assay [2].
The like results for “GATGGACCCTATACGCGGCAATCAACATCTAAAAGAGTATTTCCGTGTGACCCATGCACGGTTCATTTGAGCATTCACAGGGTGTTCCCCACAGCCTGGTACATTACAGCTTTTGTCATAACATGAACAGCAATCGGCTCAAAACACTGCCCATTGTGATGCTGATGATGAGACCTCCCTAATGTTCTAAAAGATTGTTTGGTGTAACCATGCCAGTCGGATAGTGTTCC” were, in that order, 2.26, 0.589, 1.02 and 0.896.
Turning to “GATGGACCCTATACGCGGCAGGAACTGCACTCTATCTGGTATTTAAATTCCAGGTAAGTTAGGACTGATGCCTGGTGTAGAATGCTCAAGTGTGGCCCAGATCAGTGTGGCAGTGGTGTACATCAGTTGATGTCAAAAGATGAGTTATACCCCTGGACTTCATAAGCATCAGAAAGCTCTTCTCCCTTTTGTTACATGGAGGGCTATGATTGCCAGTCGGATAGTGTTCC”, the binding signal (log2 relative supershift) in the assay on KLF4 + histone octamer was 0.43; in the assay with OCT4 + histone octamer, 0.0779; in the assay with SOX2 + histone octamer [1], 1.54; in assay [3] it was -0.433.
The like results for “GATGGACCCTATACGCGGCTGCAATCACAAAATTATAGAAAGGGAGGGCAGATGAGTGGTTGCCCCTGGTTAAAGAGTGGGTGGGGCAGGGAGGAAGTAGGTCTCGCTGTAAAAGAGCAAAGTGAGAAATGCTTCACCATATCAATGTCAGCATCCTTGGGCCGATATTGTACTCTAATTTTGCAAGATGTTATCATTGGGAGAAACTGGTGCCAGTCGGATAGTGTTCC” were, in that order, 1.85, 0.337, 0.817 and -0.0927.
The like results for “GATGGACCCTATACGCGGCTCATTTAAACATTCAACAACAGGAATACCACTGAAATAAAGGCCAAACATAAAAGGGTGCTTCTCGGTCTTCCACCATAGGAGTCCCTCTTGTGGCCTCTGGGAGCACCAGAATCCCTATGAAACAACTGTATTTATTGTATCAGGATGAGAATGAGAAGTGCCTCAGTCAAAGGCTGAGTGACGAATGGGTGCCAGTCGGATAGTGTTCC” were, in that order, 1.1, 0.183, 1.28 and -0.298.
“GATGGACCCTATACGCGGCATTTACACATTTCATTTCGTGACAGGAAATAACACTGTCAGCAGCACAGTTGCTCACGGCATGTGCTGCAGGGGAGCTGACGCACGGAGGGTGGAAAGGGTGGAGGTGGGACAACGGGTGTTTGTGCCAGCATGTCATATACCGTCCTGACCTGCTGCATGCTCTTCCTTGCCCCGGGGCAGGTCTGGCAGTGCCAGTCGGATAGTGTTCC”: the binding signal (log2 relative supershift) is 1.22 in the assay with KLF4 + histone octamer, 0.892 with OCT4 + histone octamer, 0.878 in assay [2] and -0.699 in the assay with SOX2 + histone octamer [4].
As to “GATGGACCCTATACGCGGCCCCTTAGCTCACAACATTGACAAACATTAACTCAAAATGGATCACAGATCTAAATACACTCACACTTCCTCCCATCCCCAATCATGCACTGCATGTGTTGCAAAACAATGCTGGTCTATGATGGATAGCATATGTGACTGTGGTCCCATAACATTAAAATGGAGCTGAAAAATTCCTGCCACCTAGTGACGTGCCAGTCGGATAGTGTTCC”, the binding signal (log2 relative supershift) in the assay on KLF4 + histone octamer is 0.797; in the assay on OCT4 + histone octamer, 0.268; in the assay on SOX2 + histone octamer [1], 0.303; in assay [3] it was -0.0204.
Take “GATGGACCCTATACGCGGCTAAAACTCTAAAAAGTATAGGGCCGTTATGGGAATAAACAAAATAACATAGCACTTTTGCCTGGCACATAAAAATGTTCAGAAGTGTTTGCATTATCATGAGAACCCTCCATACATAAACACGGACACACTGTGCTCACCTACTAATAGCCATTTATCACGTATTTCCTAAGCACTGGGTGGGACATGGTGTGCCAGTCGGATAGTGTTCC”: the binding signal (log2 relative supershift) with KLF4 + histone octamer is 1.96; with OCT4 + histone octamer it was 0.296; in the assay with SOX2 + histone octamer [1], 0.357; in assay [3], -0.0961.
The like results for “GATGGACCCTATACGCGGCTGAGCCTGCAGACAATGCAAGTCATTCAGGTCGCTCTTTTTTTCTGGGAAGAGCTTGCTATCAGCTAGGTGACAGGGTGGTCAGGACACATGTCTTTCATTCTCCAGCAGGCTAGCCCGGTCATGTTCACATGGTGGTGGCACCTGTTCGAGAGGGTTAAAAGGCCATTTCTAGGCATTAAATATTCAAGTTGCCAGTCGGATAGTGTTCC” were, in that order, 0.516, 0.295, 1.74 and -0.145.
The like results for “GATGGACCCTATACGCGGCAAAAGCTTGTAAAAGTTAGCATAAATCTTACAACCATAAACACTACTTTTTCCCCCACAGCAATGGTTGCCCCTCTCTTATTCTAATGATCTGTTCTGTGGTGTACTTACAGGAATGCCAAAAAGTGCATTTGGGTGGGGCTTTTCCATACCTTTCATAACTGTGGAGAACAATTAACAATGAGCTGAGTCTGCCAGTCGGATAGTGTTCC” were, in that order, 1.85, 0.526, 2.1 and -0.389.
The like results for “GATGGACCCTATACGCGGCTAATTTAGGGCATCACTTTTCCTGATATTGGCATGCTAAATATTACTTCATACTCAGTTTGGTTCCACAAGTAAGCACACACTGTATATAAAGAACTGCTTGGCTTGTATGAGTCACAGGGTCTCTGCATCCCTGCCTTTGAGAAGCTTACACTGCAGTAGGGAAGGTAAACAATTTGCTGTGTGTAAAGCTGCCAGTCGGATAGTGTTCC” were, in that order, 1.12, 0.0369, 0.274 and -0.0941.
“GATGGACCCTATACGCGGCACTCCTCCATAATTTCTGCTGCATCCCTCCCTCTCTAGCCACCTACTGCTTATCAAGCCAGAACATGTCTGAGGTCTAGCAGATCTGCCCAGTCATGATAGCTAAGGGCTGGGAGTTCCTGATCCCAGCTTCCTGGATATTACTGGAGCAGATCTGCCCTAGAGGCAAGGAGAAATATTGGATGATCTGCATGCCAGTCGGATAGTGTTCC”: the binding signal (log2 relative supershift) in the assay with KLF4 + histone octamer was 1.67; in the assay on OCT4 + histone octamer it was 0.0615; in assay [2] it was 0.0853; in the assay on SOX2 + histone octamer [4], -0.631.
For “GATGGACCCTATACGCGGCTATTTGATCATAGAACAGCCTCCCTTGTCATTGTTTTGTGTTGGAAAACCCACTGGGGTGCCGTGGAGCACCATTTGGGAGGCACCATTGAAACAAGCAGGATTTCTTTTCCCATGAGGCCTGGTACCTATTCCTTCAATGTGCTGTATTTCCATAAATCATATGTAGGTGGCTGCCTGCTTTGTCTGTGGTGCCAGTCGGATAGTGTTCC”, the binding signal (log2 relative supershift) was 2.15 in the assay with KLF4 + histone octamer, 1.81 with OCT4 + histone octamer, 1.98 in the assay with SOX2 + histone octamer [1] and 0.62 in assay [2].
For the sequence “GATGGACCCTATACGCGGCCTAATGGTTTTACATAGTGTAATCTGCACTTCAAAATAGCGAAGGGAAGCCCTACCTCATTATTCTACTTTTCCAGAATTCTCCTGGCTATTCCAGGCTGCATGTTTACCTTAACCTTCCCTGTGATGTCTTCATGCCGTTGTCTTCTTATGCAAGAATAAGGTACGTCTTTCCATCCACTCACGTCTATTTGCCAGTCGGATAGTGTTCC”, the binding signal (log2 relative supershift) was determined as 1.05 in the assay on KLF4 + histone octamer, 0.595 in the assay on OCT4 + histone octamer, 0.675 in the assay with SOX2 + histone octamer [1] and 0.575 in assay [2].
“GATGGACCCTATACGCGGCACCCTCTAGTGTTGGGGACTATAAATCCACACCCAAGAGAGGGCCAGTTCCTGACTTAATTGGAGGGCTAAACTCATAGCAGTGGGCAGCAACCAGCATTACAATACAGTCCTGTGCTGCTTAACAATGGAGAGTTCTGAAAAGGGCATTGTTAGGTGATTTCATTGTTGCGTGAATATCATAGAGTGTACTGCCAGTCGGATAGTGTTCC”: the binding signal (log2 relative supershift) with KLF4 + histone octamer was 2.23; in the assay with OCT4 + histone octamer it was 0.0246; in the assay on SOX2 + histone octamer [1], 0.964; in assay [3], -0.332.
The like results for “GATGGACCCTATACGCGGCATTCTGGCATTGTTCCCCCACTTTCTTTCTTTCTAGTGATGTTCCCAGGATTCTGTTGTCAAGCATCTCCTCACCCCGCCCCTGTGAATACTTTCCTGCTTTGAAATGCAATGTTTATTACATTGTTTGGGTGTTGACTCTCCTCAAAGCCAATAGAATATGGGATTCATTAGGAAGATGATAAAACTGTGTGCCAGTCGGATAGTGTTCC” were, in that order, 1.35, 0.231, 1.77 and -0.102.
As to “GATGGACCCTATACGCGGCTCTCAAACCTATCCCATGTCCAACTTTCCTGGATTGCTGCCACCACCTTGGGAACAGATTCTCCATGTCCAGGCTTGTCTCCCTCTGATCCATCCTCCACCCAGTTGCTAGAATAGTCTGACGACTCCACCCCCTGCTTGAAACCCGAACCCTCTGCATGCCTTATGAGAAATGTTGTCTCTGCCTCTCCCTGCCAGTCGGATAGTGTTCC”, the binding signal (log2 relative supershift) was 2.18 in the assay with KLF4 + histone octamer, 0.826 in the assay on OCT4 + histone octamer, 0.146 in assay [2] and -0.781 with SOX2 + histone octamer [4].
Consider “GATGGACCCTATACGCGGCGTTTCAGAAAGTGTATTTTCTATGAAACTCTGCAACTATTAGGATGTGATTGTTCATGGGCACAGACAGGAAATACGTGTTTAACAATGTCCTCAATAGCCCCAGCTCCAAGAAGGGGTCCCACCTATGGTGGCTGGTTGGCAGATAGTTATTGAAATTCAAAGTGCATGACTAGCATTTCTTGAGAAACTTGCCAGTCGGATAGTGTTCC”, for which the binding signal (log2 relative supershift) was 0.232 with KLF4 + histone octamer, 0.249 in the assay with OCT4 + histone octamer, 0.571 in the assay with SOX2 + histone octamer [1] and -0.418 in assay [3].
As to “GATGGACCCTATACGCGGCTGTAATTTACACAGGAAAGTCAACTTGAAATTCCATCAGCAAAATCAGCAGAACAATACTCATTTATACATTCAATACACAAGGACATACTGACACCCACCCTGTGCCACGTATTGAGCCACCAGACCTAACTATGGTTTTAAAAATATTACTCTGAATTCCACATGGAACAGATGGGAAAGGTAGGCACATGCCAGTCGGATAGTGTTCC”, the binding signal (log2 relative supershift) in the assay with KLF4 + histone octamer was 0.998; in the assay with OCT4 + histone octamer, 0.382; in assay [2], 0.698; in the assay with SOX2 + histone octamer [4] it was -0.112.
The like results for “GATGGACCCTATACGCGGCGTGTGCATATGCCCGTGTGTATCCGTATGTGCGTGTTTGTGTGTGCATGTGCATGTGTGCATGCTTGTGCATCCGTGTGTGCATGTGCACGTGTCCATGCACATGTGGGTGGGTGTGCGTATATCTGTGTGCATGTGCATGTGTATCTGTATGTGTGTGCCCAAGTGCATGTATGTATGTGCGTGCGCATGTGCCAGTCGGATAGTGTTCC” were, in that order, 0.78, 0.461, 1.14 and -0.459.
